Assay [1] deals with T1, mouse Dnaaf6, FLAG-tagged (mouse) (UniProt Q3KNI6).
T1 sequence: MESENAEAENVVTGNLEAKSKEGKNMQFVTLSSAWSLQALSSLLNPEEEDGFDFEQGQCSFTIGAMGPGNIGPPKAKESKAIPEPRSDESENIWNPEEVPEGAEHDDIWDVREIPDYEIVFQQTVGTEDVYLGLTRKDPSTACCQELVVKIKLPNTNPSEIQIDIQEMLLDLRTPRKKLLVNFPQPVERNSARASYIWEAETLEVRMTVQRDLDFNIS
Briefly: co-IP; FLAG-tagged bait and HA-tagged prey expressed in S2 cells, harvested after 48-72 h; FLAG Immunoprecipitation kit; Western blot with anti-FLAG and anti-HA together. Background: Immunoblotting shows a protein as a band on a membrane.

Protein sequences, listed by entry. Tags and fused reporters are not part of them.
UniProt P02828: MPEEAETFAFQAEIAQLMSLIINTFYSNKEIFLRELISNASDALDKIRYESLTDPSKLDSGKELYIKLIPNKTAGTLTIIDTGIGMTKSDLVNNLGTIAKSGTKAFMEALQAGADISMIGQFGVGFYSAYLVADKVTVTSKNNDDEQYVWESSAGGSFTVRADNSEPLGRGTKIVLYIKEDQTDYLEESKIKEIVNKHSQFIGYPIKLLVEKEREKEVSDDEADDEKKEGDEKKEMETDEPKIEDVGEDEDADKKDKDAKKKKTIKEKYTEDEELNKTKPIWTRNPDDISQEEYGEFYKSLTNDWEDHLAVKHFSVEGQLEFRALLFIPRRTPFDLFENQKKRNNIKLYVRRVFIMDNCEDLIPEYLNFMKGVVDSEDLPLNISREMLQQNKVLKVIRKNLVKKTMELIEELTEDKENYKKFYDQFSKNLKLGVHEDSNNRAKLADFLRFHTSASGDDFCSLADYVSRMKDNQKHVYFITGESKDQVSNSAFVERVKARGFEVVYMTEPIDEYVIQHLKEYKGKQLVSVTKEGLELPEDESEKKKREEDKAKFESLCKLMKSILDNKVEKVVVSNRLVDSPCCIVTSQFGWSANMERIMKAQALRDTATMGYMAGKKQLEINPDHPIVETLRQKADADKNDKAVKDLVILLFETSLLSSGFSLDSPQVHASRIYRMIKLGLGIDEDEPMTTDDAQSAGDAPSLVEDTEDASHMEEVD
UniProt Q9VH07: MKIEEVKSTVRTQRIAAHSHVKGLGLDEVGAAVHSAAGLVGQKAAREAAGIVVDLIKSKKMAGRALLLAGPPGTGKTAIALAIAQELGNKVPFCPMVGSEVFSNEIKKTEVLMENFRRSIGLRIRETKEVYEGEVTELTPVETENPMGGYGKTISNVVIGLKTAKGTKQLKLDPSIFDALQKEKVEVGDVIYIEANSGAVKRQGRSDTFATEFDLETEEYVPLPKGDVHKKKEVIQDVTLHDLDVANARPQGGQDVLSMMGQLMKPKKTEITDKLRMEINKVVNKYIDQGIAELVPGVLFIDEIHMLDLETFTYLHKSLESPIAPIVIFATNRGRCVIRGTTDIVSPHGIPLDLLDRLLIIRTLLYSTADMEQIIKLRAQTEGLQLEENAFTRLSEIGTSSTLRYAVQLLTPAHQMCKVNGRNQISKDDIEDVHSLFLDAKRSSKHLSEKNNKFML
UniProt Q9V3K3: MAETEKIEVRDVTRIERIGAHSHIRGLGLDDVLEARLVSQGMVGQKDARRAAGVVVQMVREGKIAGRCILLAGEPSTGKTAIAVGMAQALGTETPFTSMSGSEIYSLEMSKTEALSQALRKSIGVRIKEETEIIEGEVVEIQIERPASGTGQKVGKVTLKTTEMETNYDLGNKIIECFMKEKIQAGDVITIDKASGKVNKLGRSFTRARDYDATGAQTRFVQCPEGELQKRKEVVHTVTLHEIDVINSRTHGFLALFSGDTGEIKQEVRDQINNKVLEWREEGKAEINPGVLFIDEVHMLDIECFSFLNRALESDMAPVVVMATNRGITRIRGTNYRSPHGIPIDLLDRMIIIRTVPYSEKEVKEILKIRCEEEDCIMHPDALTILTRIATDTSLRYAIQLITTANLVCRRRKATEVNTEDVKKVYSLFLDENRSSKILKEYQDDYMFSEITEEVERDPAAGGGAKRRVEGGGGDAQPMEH

In assay [2] the target is Drosophila Hsp90, FLAG-tagged (Drosophila melanogaster) (UniProt P02828). The assay is described as above.

Experimental findings from publication PMC9298768 are described below.

These are yes or no findings as the source states them, for the method shown. Binding seen in cells or lysates may run through a third protein. Some results given as binding are weak or reduced against the parent protein; the word gives no strength. Sequences can lack the tags named with a protein.

As to “Drosophila Hsp90, HA-tagged (from UniProt P02828 1-717)”, the binding entry in assay [1] is recorded as “binds”.
“Drosophila Pontin, HA-tagged (from UniProt Q9VH07 1-456)”: the binding result in assay [1] is given as “binds”.
For “Drosophila Reptin, HA-tagged (from UniProt Q9V3K3 1-481)”, in assay [1], the binding result was “binds”.

B1: mouse Dnaaf4, HA-tagged (protein, UniProt Q8R368 1-420)
chain: MPVRVSEFSWQQTPATIFLSLPLRGVCVRDADVFCGESYLKVNFPPFLFELFLYAPIDDGKSKAKIGNDTILFTLYKKEPVLWDSLSVPGVDKEMMQRIREKSILQAQEKAKEATEAKAVAKREDQRYALGEMMKIEEEERKKIEDMKENERKKATSELEAWKECQKKADGQKRVQRKEKPLEGKQAEETKALKPRGLPRKAPPTRLPTRGRNWENIFPEKLKEDRVPAPRSAGSIQISFTPRVFPTALRESQVAEEEEWLHKQAEARRAMSTDLPEFFDLKEEERNPDWLKDKGNKLFATENYLAAVDAYNLAIRLNCKIPLLYLNRAACHLKLKNLHKAIEDSSKALELLTPPVADNANARMKAHVRRGTAFCQLELYVEGLQDYEAALKIDPANTVVQNDAEKIRNIIQGTALKSRD
Turning to B1, the binding result in assay [2] and in assay [1] was “binds” each time.
